Among all 580,000 compounds or so, about 6,100 (1.1%) were called active. The shares of active, inactive and inconclusive entries below differ from those in the screen. Calls come from the whole dose curve; as a rule, active = well fitted inhibition curve with a large enough effect; inconclusive = small, poorly fitted or top-dose-only effect, or another doubt; inactive = no such curve, though single readings can be large or run the other way. Where the call is inconclusive, the potency comes from a doubtful curve fit.
target: Polyunsaturated fatty acid lipoxygenase ALOX12 (Homo sapiens) (UniProt P18054); experiment: Primary qHTS assay for inhibitors of human arachidonate 12S-lipoxygenase (ALOX12): Round 2; conditions: purified 12hLO, xylenol orange hydroperoxide absorbance; activity change, negative = inhibition: at 108 µM (top of the series) unless noted
Procedure, shortened: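 Purified human 12hLO at 150 nM in 25 mM Hepes, 0.01% Triton X-100, pH 7.0, preincubated 15 min at room temperature with compound. Reaction started with 40 uM arachidonic acid, 30 min at room temperature. Hydroperoxide measured by Fe-xylenol orange, 573/405 nm absorbance ratio.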
% is set by controls: 0 for no effect and ±100 for the full control effect; potency is the fitted concentration of half-maximal effect.

Protein sequences, listed by entry. Tags and fused reporters are not part of them. Lines headed by an entry give the natural chain unless they say otherwise; changes in a name come on top.
UniProt P18054: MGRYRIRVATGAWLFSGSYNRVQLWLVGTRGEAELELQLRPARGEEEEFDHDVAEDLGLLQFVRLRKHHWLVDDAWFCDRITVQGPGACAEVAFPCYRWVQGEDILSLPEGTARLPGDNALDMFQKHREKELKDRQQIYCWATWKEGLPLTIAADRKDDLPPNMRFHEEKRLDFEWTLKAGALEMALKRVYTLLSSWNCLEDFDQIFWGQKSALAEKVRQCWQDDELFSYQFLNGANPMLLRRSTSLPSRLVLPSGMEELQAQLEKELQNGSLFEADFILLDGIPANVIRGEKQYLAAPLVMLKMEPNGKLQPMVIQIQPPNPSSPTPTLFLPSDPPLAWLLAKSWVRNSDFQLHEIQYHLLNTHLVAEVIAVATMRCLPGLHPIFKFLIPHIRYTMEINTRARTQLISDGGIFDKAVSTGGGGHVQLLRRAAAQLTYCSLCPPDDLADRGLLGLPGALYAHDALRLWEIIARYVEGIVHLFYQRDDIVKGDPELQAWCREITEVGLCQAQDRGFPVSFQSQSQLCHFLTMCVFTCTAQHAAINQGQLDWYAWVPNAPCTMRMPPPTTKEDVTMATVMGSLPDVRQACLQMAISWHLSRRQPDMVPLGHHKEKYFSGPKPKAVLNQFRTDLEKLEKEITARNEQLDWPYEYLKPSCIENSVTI

Row | SMILES | Potency | activity change, negative = inhibition
1 | CCOC(=O)C1=C(C)N(C)C(C)=C(C(=O)OCC)C1c1ccccn1 | inconclusive: 0.224 µM [inhibitor, full curve, poor fit] | –
2 | CCOC(=O)CC(=O)Nc1ncnc2c1C(c1ccccc1)c1c(ccc3ccccc13)O2 (stereo not drawn) | – | inactive: -7.33%
3 | Cc1ccc(-n2c(C3CCN(C(=O)COc4ccc(Cl)cc4)CC3)n[nH]c2=O)cc1 | inconclusive: 31.6 µM [inhibitor, single point] | –
4 | NNC(=O)CNC(=O)c1ccccc1F | – | inactive: -4.5%
5 | CC(C)(C)c1ccc(S(=O)(=O)/N=C2\C=C(NS(=O)(=O)c3ccccc3)C(=O)c3ccccc32)cc1 | active: 25.1 µM | –
6 | Cc1cc(C)n2nc(C(=O)OCCOc3ccc(Br)cc3)nc2n1 | inconclusive: 0.794 µM [inhibitor, full curve, poor fit] | –
7 | COCCn1c(SCC#N)nnc1-c1ccccc1O | inconclusive: 44.7 µM [inhibitor, partial curve, poor fit] | –
8 | Cc1ccc(S(=O)(=O)N(CC(=O)Nc2ccccc2C(=O)O)c2cccc(Cl)c2)cc1 | inconclusive: 50.1 µM [inhibitor, partial curve, poor fit] | –
9 | Cc1ccc(NS(=O)(=O)c2ccccc2)c(=O)n1CC(=O)N(C)Cc1ccccc1 | inconclusive: 2.82 µM [inhibitor, full curve] | –
10 | Cc1ccc(Sc2ccc(NC(=O)CCl)cc2)c(C)c1 | inconclusive: 39.8 µM [inhibitor, partial curve] | –
11 | CCOC(=O)c1c(-c2ccc(C)cc2)csc1/N=C(\C)C1=C(O)c2ccccc2C1=O | inconclusive: 28.2 µM [inhibitor, partial curve, poor fit] | –
12 | CC(=O)Nc1cccc(-c2ccnc3c2CC(C)(C(=O)Nc2cccc(Oc4ccccc4)c2)O3)c1 (stereo not drawn) | inconclusive: 50.1 µM [inhibitor, partial curve, poor fit] | –
13 | Cc1cc(N/N=C2/CCCc3ccccc32)nc2ccccc12 | inconclusive: 79.4 µM [inhibitor, partial curve, poor fit] | –
14 | O=C(NC1CCN(Cc2ccccc2)CC1)c1ccc(Cn2c(=O)c3ccccc3n(Cc3ccc(Cl)cc3)c2=O)cc1 | inconclusive: 56.2 µM [inhibitor, partial curve, poor fit] | –
15 | CC(C)=CCC/C(C)=C/CC/C(C)=C/CC[C@]1(C)CCc2c(C)c(O)c(C)c(C)c2O1 | – | inactive: -4.2% [at 12.5 µM]
16 | COc1ccc(S(=O)(=O)c2c[nH]c(=S)[nH]c2=O)cc1Cl | inconclusive: 7.94 µM [inhibitor, partial curve, poor fit] | –
17 | CCN(CC)c1ccc(/C=N/NC(=O)C2CC2)cc1 | inconclusive: 28.2 µM [inhibitor, single point] | –
18 | CCN(CC)CCCn1c2c(c(SCC(=O)Nc3ccc(C)c(F)c3)nc1=O)CCC2 | inconclusive: 126 µM [inhibitor, partial curve, poor fit] | –
19 | CC(=O)Nc1c(C)noc1/C=C\c1ccc(S(=O)(=O)Nc2ccc(C)cc2)cc1 | inconclusive: 89.1 µM [inhibitor, partial curve, poor fit] | –

Row | SMILES | Potency | activity change, negative = inhibition
20 | N#Cc1ccccc1S(=O)(=O)N1CCN(CC(O)CN2CCOCC2)CC1 (stereo not drawn) | inconclusive: 0.447 µM [inhibitor, full curve, poor fit] | –
21 | O=Cc1ccc(OCc2cccc(Br)c2)cc1 | inconclusive: 50.1 µM [inhibitor, partial curve, poor fit] | –
22 | COc1ccc(CCNCc2csc3nc4ccccc4n23)cc1OC | inconclusive: 31.6 µM [inhibitor, partial curve, poor fit] | –
23 | CC(C)N1CCN(C(=O)c2cc3cn(C4CC4)cc3s2)CC1 | – | inactive: 18.1%
24 | CCCCN(C)CC(O)Cn1cc(/C=C/C(=O)c2ccc(Br)cc2)c2ccccc21 (stereo not drawn) | inconclusive: 15.8 µM [inhibitor, full curve, poor fit] | –
25 | CC1CCCC(C)N1C(=O)COC(=O)Cc1c[nH]c2ccccc12 (stereo not drawn) | – | inactive: -14%
26 | CN(NC(=O)c1ccc(Cl)cc1)c1ncc(C(F)(F)F)cc1Cl | inconclusive: 100 µM [inhibitor, partial curve, poor fit] | –
27 | Cc1cc(=O)[nH]c2nnc(SCc3ccc(Cl)cc3Cl)n12 | inconclusive: 141 µM [inhibitor, partial curve, poor fit] | –
28 | O=S(=O)(NCC(c1ccccc1)N1CCNCC1)c1ccc(Cl)cc1 (stereo not drawn) | inconclusive: 35.5 µM [inhibitor, partial curve, poor fit] | –
29 | Nc1ccn([C@@H]2O[C@H](C(=O)N3CCN(Cc4ccccn4)CC3)[C@@H](O)[C@H]2O)c(=O)n1 | inconclusive: 112 µM [inhibitor, single point] | –
30 | CC(C)c1nnc(NC(=O)CN(C)S(=O)(=O)c2ccc3c(c2)OCCO3)s1 | inconclusive: 100 µM [inhibitor, single point] | –
31 | Cc1ccc2c(CNC3CCCCC3)c(C(=O)O)n(Cc3ccc(F)cc3)c2c1 | – | inactive: 0%
32 | CC(/C=C\C=C\c1ccccc1)=N\NC(=O)c1cncc(Br)c1 | inconclusive: 70.8 µM [inhibitor, partial curve, poor fit] | –
33 | NC(=O)CN1CCC2(CC1)CCN(C(=O)Cc1cnc[nH]1)CC2CO (stereo not drawn) | – | inactive: 35.8%
34 | O=C(CSc1n[nH]c(-c2cccnc2)n1)Nc1ccnc2ccccc12 | inconclusive: 56.2 µM [inhibitor, partial curve, poor fit] | –
35 | CCC(=O)c1ccc(OCC(=O)N2CCN(S(=O)(=O)c3ccc(Cl)s3)CC2)cc1 | inconclusive: 28.2 µM [inhibitor, partial curve, poor fit] | –
36 | OC(C#Cc1ccccc1)(c1ccccc1)c1ccccc1 | inconclusive: 126 µM [inhibitor, single point] | –
37 | Cc1nc(SCc2nc3c(F)cccc3[nH]2)c2oc3ccccc3c2n1 | inconclusive: 79.4 µM [inhibitor, single point] | –
38 | CCOC(=O)C1=C(COC(=O)CNS(=O)(=O)c2ccc(NC(C)=O)cc2)NC(=O)NC1C (stereo not drawn) | inconclusive: 50.1 µM [inhibitor, partial curve, poor fit] | –

Single records (already shown).
CC(=O)Nc1c(C)noc1/C=C\c1ccc(S(=O)(=O)Nc2ccc(C)cc2)cc1 in the list: Potency: inconclusive: 89.1 µM [inhibitor, partial curve, poor fit]
CN(NC(=O)c1ccc(Cl)cc1)c1ncc(C(F)(F)F)cc1Cl in the list: Potency: inconclusive: 100 µM [inhibitor, partial curve, poor fit]

From PubChem BioAssay AID1671190 (National Center for Advancing Translational Sciences (NCATS), 2021)
